Our source for the binding values is article PMC6509496, “Crystal structure of the TreS:Pep2 complex, initiating α-glucan synthesis in the GlgE pathway of mycobacteria” (The Journal of Biological Chemistry, 2019).

Protein sequences, listed by entry. Tags and fused reporters are not part of them. Lines headed by an entry give the natural chain unless they say otherwise; changes in a name come on top.
UniProt A0R6E0: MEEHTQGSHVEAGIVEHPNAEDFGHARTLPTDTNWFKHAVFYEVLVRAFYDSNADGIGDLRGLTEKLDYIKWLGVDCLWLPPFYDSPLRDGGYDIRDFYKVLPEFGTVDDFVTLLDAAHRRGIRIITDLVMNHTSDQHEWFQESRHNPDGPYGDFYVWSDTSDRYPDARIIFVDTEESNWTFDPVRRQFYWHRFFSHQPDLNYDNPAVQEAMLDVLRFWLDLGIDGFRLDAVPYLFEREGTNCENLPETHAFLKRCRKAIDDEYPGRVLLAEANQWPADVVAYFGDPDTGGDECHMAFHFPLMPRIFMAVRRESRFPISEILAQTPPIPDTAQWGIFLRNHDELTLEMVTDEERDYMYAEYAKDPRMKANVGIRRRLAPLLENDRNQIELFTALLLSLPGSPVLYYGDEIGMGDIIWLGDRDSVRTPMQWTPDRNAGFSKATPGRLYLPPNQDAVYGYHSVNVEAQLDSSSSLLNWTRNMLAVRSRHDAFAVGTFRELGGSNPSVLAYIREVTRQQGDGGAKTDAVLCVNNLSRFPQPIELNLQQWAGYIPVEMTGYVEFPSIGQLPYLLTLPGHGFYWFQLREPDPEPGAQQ
UniProt A0R6D9: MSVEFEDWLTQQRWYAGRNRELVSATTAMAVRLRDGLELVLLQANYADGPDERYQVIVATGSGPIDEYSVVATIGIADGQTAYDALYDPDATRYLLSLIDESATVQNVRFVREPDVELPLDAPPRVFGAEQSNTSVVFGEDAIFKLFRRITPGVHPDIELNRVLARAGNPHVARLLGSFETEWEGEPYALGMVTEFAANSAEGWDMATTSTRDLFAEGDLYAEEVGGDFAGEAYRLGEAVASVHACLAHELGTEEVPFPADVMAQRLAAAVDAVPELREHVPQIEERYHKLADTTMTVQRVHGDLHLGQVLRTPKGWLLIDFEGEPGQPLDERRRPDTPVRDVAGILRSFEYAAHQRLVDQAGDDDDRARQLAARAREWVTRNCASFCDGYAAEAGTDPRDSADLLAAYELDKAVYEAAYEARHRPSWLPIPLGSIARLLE

The target in test [1] is Mycobacterium smegmatis trehalose synthase (TreS) (M. smegmatis) (UniProt A0R6E0). Nature of the test: SEC; Sephacryl S-300HR (320 ml), proteins alone or equimolar mixtures at 30 μM each; 50 mM sodium phosphate pH 6.0-9.0, 300 mM NaCl, 10% glycerol (Pep2-Δ70 with TreS at pH 6.5); both purified.
Test [2] shares this target. Nature of the test: crystal structure; vapor diffusion of mixtures of M. smegmatis TreS and Pep2 at molar ratios 1:1 to 1:2; 9-10% PEG 8000, 4% glycerol, 200 mM MgCl2, 0.1 M Tris-HCl pH 6.7-7.0; 3.6 Å; both purified.

No constants are given. Whether binding was seen depends on the method and setting. Some binding calls cover weakened binding; strength is not graded here.

In the case of “Mycobacterium smegmatis maltokinase (Pep2) (from UniProt A0R6D9 1-441) (enzyme)”, the binding result in test [1] and in test [2] was “binds” each time.

In the case of “N-terminally truncated M. smegmatis Pep2 (Pep2-Δ70) (from UniProt A0R6D9 71-441) (domain or fragment)”, the binding entry in test [1] is “binds”.
